Results reported in PubChem BioAssay AID1347072 (National Center for Advancing Translational Sciences (NCATS), 2019).
The whole screen tested about 44,000 compounds, of which fewer than 10 were called active. Inconclusive means that the source gave no clear call. Such entries were picked first, then a sample of the others. Calls follow the shape of the dose curve; as a rule, active = well fitted curve in the direction sought with a large enough effect; inconclusive = small, poorly fitted or top-dose-only effect, or another doubt; inactive = no such curve, though single readings can be large or run the other way. Potencies beside an inconclusive call are fits to weak or partial responses and may not hold up.

Protein sequences, listed by entry. Tags and fused reporters are not part of them. Lines headed by an entry give the natural chain unless they say otherwise; changes in a name come on top.
UniProt P51570: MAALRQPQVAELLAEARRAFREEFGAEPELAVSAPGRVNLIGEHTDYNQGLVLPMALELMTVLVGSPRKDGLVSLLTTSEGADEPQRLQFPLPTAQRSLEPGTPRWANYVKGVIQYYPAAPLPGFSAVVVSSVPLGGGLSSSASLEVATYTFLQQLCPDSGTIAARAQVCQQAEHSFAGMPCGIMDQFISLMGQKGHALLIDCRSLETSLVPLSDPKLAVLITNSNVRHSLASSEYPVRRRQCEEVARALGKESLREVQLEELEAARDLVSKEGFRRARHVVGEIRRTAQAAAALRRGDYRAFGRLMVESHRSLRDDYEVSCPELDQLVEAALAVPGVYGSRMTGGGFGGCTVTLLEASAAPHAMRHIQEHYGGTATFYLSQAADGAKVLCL

target: Galactokinase (Homo sapiens) (UniProt P51570); assay: qHTS Assay for Inhibitors of Human Galactokinase (GALK): NCGC Sytravon Library Screen; details: recombinant GALK, Kinase-Glo ATP luminescence, 1 h; series mostly up to 57.5 µM
In short: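 5 nM GALK; 35 uM ATP; 100 uM D-galactose; 20 mM HEPES pH 8.0, 5 mM MgCl2, 60 mM NaCl, 1 mM DTT, 0.01% BSA; 1 h RT; Kinase-Glo Plus luminescence.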

With `O=C(c1ccc(Br)cc1)N1CCC(c2nc3ccccc3s2)CC1` as the compound, how does the Potency read?
The Potency was “inactive”.

For `Cc1ccccc1Cn1c(=O)n(CCCCC(=O)NCc2ccc3c(c2)OCO3)c(=O)c2ccccc21`, which Potency is on record?
Its Potency is “inactive”.

Which Potency does the source give for `Cc1ccc(S(N)(=O)=O)cc1NC(=O)c1c(-c2c(Cl)cccc2Cl)noc1C` here?
Its Potency is inconclusive: 39.8 µM [inhibitor, single point].

`Cc1ccc(NC(=O)CCCn2c(=O)c3cccn3c3cccnc32)c(C)c1` was tested. Which Potency did it give?
Its Potency is inconclusive: 2 µM [inhibitor, full curve, poor fit].

For `Cc1ccc(NC(=O)C2CCN(C(=O)c3cnn(-c4ccccc4)c3-n3cccc3)CC2)cc1Cl`, which Potency is on record?
The Potency was inconclusive: 22.4 µM [inhibitor, partial curve].

Which Potency does the source give for `CCOc1ccc(NC(=O)CCC(=O)N2CCSc3ccccc32)cc1` here?
The Potency was inconclusive: 0.708 µM [inhibitor, full curve, poor fit].

For `COc1ccc(N2CCN(c3oc(/C=C/c4ccccc4OC)nc3C#N)CC2)cc1`, which Potency is on record?
Its Potency is “inactive”.

`Cc1ccc(NC(=O)CSc2nc3nccnc3c(=O)n2CCc2c[nH]c3ccccc23)cc1C` was tested. Which Potency did it give?
The Potency was inconclusive: 7.08 µM [inhibitor, partial curve, poor fit].

For `COc1ccccc1C1C(C(=O)Nc2ccccc2)=C(C)Nc2nc(-c3ccccc3)nn21` (stereo not given), which Potency is on record?
The Potency was inconclusive: 0.199 µM [inhibitor, partial curve, poor fit].

How did the Potency turn out when `O=C(NCCOCCn1c(=O)oc2ccccc21)Nc1ccc(F)cc1F` was run?
The Potency was inconclusive: 39.8 µM [inhibitor, partial curve, poor fit].

Which Potency does the source give for `CSc1ccc(CCNC(=O)CCc2c(C)nc3cc(-c4ccccc4)nn3c2C)cc1` here?
Its Potency is “inactive”.

Which Potency does the source give for `COc1ccc(Cn2c(C(=O)O)c(CNCCc3cc(OC)ccc3OC)c3ccc(C)cc32)cc1` here?
Its Potency is inconclusive: 0.891 µM [inhibitor, full curve, poor fit].

How did the Potency turn out when `COc1ccc(NS(=O)(=O)c2ccc3[nH]c4c(c3c2)CCCC4)cc1OC` was run?
The Potency was “inactive”.

How did the Potency turn out when `Cc1noc(C)c1S(=O)(=O)N1CCC(C(=O)N2CCN(c3cccc(C(F)(F)F)c3)CC2)CC1` was run?
Its Potency is “inactive”.

For `CC(NC(=O)CN1C(=O)c2cccnc2Oc2ccc(Cl)cc21)c1ccccc1` (stereo not given), which Potency is on record?
Its Potency is inconclusive: 1.78 µM [inhibitor, full curve, poor fit].

With `Cc1ccc(-n2nc(CO)c(C(=O)NCc3cccs3)n2)cc1` as the compound, how does the Potency read?
Its Potency is inconclusive: 39.8 µM [inhibitor, partial curve, poor fit].

How did the Potency turn out when `C=Cc1ccc(Cn2c(C(=O)O)c(CNCc3cc(Br)ccc3OC)c3ccc(C)cc32)cc1` was run?
The Potency was inconclusive: 0.708 µM [inhibitor, full curve, poor fit].

With `CCOc1ccccc1NC(=O)c1c(NCc2sccc2C)sc2c1CCCCC2` as the compound, how does the Potency read?
Its Potency is “inactive”.

How did the Potency turn out when `COc1ccc(-c2noc(-c3nnn(-c4cc(C)ccc4C)c3N)n2)cc1` was run?
Its Potency is inconclusive: 0.708 µM [inhibitor, full curve, poor fit].

Which Potency does the source give for `COc1cc(-c2noc(-c3ccc(NCc4cccnc4)c([N+](=O)[O-])c3)n2)cc(OC)c1OC` here?
The Potency was inconclusive: 10 µM [inhibitor, partial curve, poor fit].

With `CCCc1cc(=O)[nH]c(Nc2ccc(C(=O)O)cc2)n1` as the compound, how does the Potency read?
The Potency was “inactive”.

`COc1ccc(S(=O)(=O)Nc2cc3c(C(=O)OC(C)C)c(C)oc3c3ccccc23)cc1` was tested. Which Potency did it give?
Its Potency is “inactive”.

For `CC(=O)c1ccc(N2CCN(S(=O)(=O)c3cc(-c4noc(C)n4)ccc3C)CC2)cc1`, which Potency is on record?
The Potency was “inactive”.

`CC(C)c1ccc(NC(=O)CSc2nc3ccccc3nc2Cc2ccccc2)cc1` was tested. Which Potency did it give?
The Potency was inconclusive: 39.8 µM [inhibitor, partial curve, poor fit].

How did the Potency turn out when `COc1ccccc1N1CCN(C(CNC(=O)C(=O)NCc2ccc(F)cc2)c2cccnc2)CC1` (stereo not given) was run?
The Potency was “inactive”.

How did the Potency turn out when `Cc1ccc(CNc2nc3ccccc3n3c(C)nnc23)cc1` was run?
Its Potency is inconclusive: 7.08 µM [inhibitor, partial curve, poor fit].

With `O=C(c1ccc2c(c1)OCCO2)N(Cc1cccnc1)c1nc2c(F)cccc2s1` as the compound, how does the Potency read?
The Potency was inconclusive: 0.126 µM [inhibitor, full curve, poor fit].

`Cn1c(C(=O)NCCc2ccccc2)cc2c(=O)n3ccccc3nc21` was tested. Which Potency did it give?
The Potency was “inactive”.

Which Potency does the source give for `COc1ccc(N2CCN(C(CNC(=O)C(=O)NCCCN(C)C)c3cccnc3)CC2)cc1` (stereo not given) here?
The Potency was inconclusive: 8.91 µM [inhibitor, full curve, poor fit].

How did the Potency turn out when `CCc1nnc(SCc2nc(-c3ccc(OC)c(OC)c3)oc2C)c2cc3sc(C)cc3n12` was run?
Its Potency is inconclusive: 1.58 µM [inhibitor, full curve, poor fit].

For `O=C(NCc1ccccc1)C(=O)NCC(c1ccc2c(c1)OCO2)N1CCOCC1` (stereo not given), which Potency is on record?
The Potency was “inactive”.

With `CCC12CN3CC(C)(CN(C1)C3c1ccccc1C)C2=O` (stereo not given) as the compound, how does the Potency read?
The Potency was inconclusive: 39.8 µM [inhibitor, partial curve, poor fit].

With `COc1ccccc1NC(=O)CSc1nnc(-c2nonc2NC(C)=O)n1-c1ccccc1` as the compound, how does the Potency read?
Its Potency is inconclusive: 7.08 µM [inhibitor, partial curve, poor fit].

For `COc1ccc(-c2noc(CSc3nnc(-c4ccccc4)n3-c3ccc(F)cc3)n2)c(OC)c1`, which Potency is on record?
Its Potency is “inactive”.

How did the Potency turn out when `Cc1ccc(CNC(=O)c2ccc(CS(=O)(=O)Cc3ccc(F)cc3)o2)cc1` was run?
Its Potency is “inactive”.

With `CCC(C)n1c(=N)c(C(=O)NC2CCCC2)cc2c(=O)n3ccccc3nc21` (stereo not given) as the compound, how does the Potency read?
Its Potency is “inactive”.

For `CCc1cccc(NC(=O)CSc2n[nH]c(-c3ccccc3Cl)n2)c1`, which Potency is on record?
The Potency was inconclusive: 7.94 µM [inhibitor, partial curve, poor fit].

`CCCSc1oc(-c2ccco2)nc1S(=O)(=O)c1ccc(Cl)cc1` was tested. Which Potency did it give?
Its Potency is inconclusive: 39.8 µM [inhibitor, partial curve, poor fit].

For `O=C(COc1ccc(Br)cc1)Nc1cccc2cccnc12`, which Potency is on record?
Its Potency is inconclusive: 0.224 µM [inhibitor, full curve, poor fit].

With `CCOC(=O)c1[nH]c(C)c(C(=O)NCc2ccc(F)cc2)c1C` as the compound, how does the Potency read?
The Potency was inconclusive: 1.12 µM [inhibitor, full curve, poor fit].

For `Cc1cccc(-c2nnc(SCCC(=O)O)o2)c1`, which Potency is on record?
The Potency was “inactive”.

How did the Potency turn out when `CC(=O)c1ccc(NC(=O)CSc2ccc3nc(-c4ccccc4)cn3n2)cc1` was run?
Its Potency is inconclusive: 3.98 µM [inhibitor, full curve, poor fit].

How did the Potency turn out when `CCCC(=O)N(c1ccc2oc(C)c(C(C)=O)c2c1)S(=O)(=O)c1ccc(CC)cc1` was run?
Its Potency is “inactive”.

`Cc1cc(O)c(C(c2cccc(F)c2)N2CCN(c3ccccc3)CC2)c(=O)n1Cc1ccco1` (stereo not given) was tested. Which Potency did it give?
Its Potency is inconclusive: 35.5 µM [inhibitor, partial curve, poor fit].

`CSc1ccc(CCNC(=O)NCc2noc3ccccc23)cc1` was tested. Which Potency did it give?
The Potency was inconclusive: 2 µM [inhibitor, partial curve, poor fit].

With `CCOc1cc(-c2ccc(OC(=O)c3ccc(C)cc3)c(OC)c2)cc(=O)c2c(C)oc(C)c12` as the compound, how does the Potency read?
Its Potency is inconclusive: 5.01 µM [inhibitor, full curve, poor fit].

Which Potency does the source give for `N#Cc1c(-n2ncnc2-c2ccccc2C(F)(F)F)sc2c1CCCCC2` here?
Its Potency is “inactive”.

For `Cc1cc(C)n(C(C)CC(=O)NCc2ccc(N(C)C)cc2)n1` (stereo not given), which Potency is on record?
The Potency was “inactive”.

With `Cc1cccc(CSc2nc3c(c(=O)[nH]2)C(c2cccc(O)c2)CC(=O)N3)c1` (stereo not given) as the compound, how does the Potency read?
Its Potency is inconclusive: 22.4 µM [inhibitor, partial curve, poor fit].

How did the Potency turn out when `CCc1ccc2oc(C(=O)Nc3nonc3CC)c(C)c2c1` was run?
The Potency was inconclusive: 39.8 µM [inhibitor, partial curve, poor fit].

How did the Potency turn out when `Nc1c(C(=O)Nc2ccc(C(=O)O)cc2)sc2nc3c(cc12)CCCC3` was run?
Its Potency is inconclusive: 14.1 µM [inhibitor, partial curve, poor fit].

With `Cc1cccc(-n2ncc3c(NC4CCCC4)ncnc32)c1` as the compound, how does the Potency read?
Its Potency is “inactive”.

With `CCc1ccc(Nc2nc(N)nc(CSc3nc4ccccc4s3)n2)cc1` as the compound, how does the Potency read?
The Potency was “inactive”.

How did the Potency turn out when `Cc1ccc(S(=O)(=O)N2CCC(n3c(C)nc4cccnc43)CC2)c(C)c1` was run?
The Potency was “inactive”.

With `CN1CCN(C(CNC(=O)c2ccccc2)c2ccc3c(c2)OCO3)CC1` (stereo not given) as the compound, how does the Potency read?
The Potency was inconclusive: 6.31 µM [inhibitor, partial curve, poor fit].

How did the Potency turn out when `Brc1ccc2nc(SCCOc3ccccc3)[nH]c2c1` was run?
The Potency was inconclusive: 2 µM [inhibitor, partial curve, poor fit].

`CNC(=O)c1ccc(CSc2nc3ccncc3n2Cc2ccc(C)cc2)cc1` was tested. Which Potency did it give?
The Potency was inconclusive: 31.6 µM [inhibitor, partial curve, poor fit].

Which Potency does the source give for `Cc1ccccc1Nc1c(-c2ccc(N3CCOCC3)cc2)nc2ccc(Cl)cn12` here?
Its Potency is inconclusive: 10 µM [inhibitor, partial curve, poor fit].

With `Cc1cccc(N2CCN(C(=O)c3nn(C)c4c3CS(=O)(=O)c3ccccc3-4)CC2C)c1` (stereo not given) as the compound, how does the Potency read?
The Potency was inconclusive: 20 µM [inhibitor, partial curve, poor fit].

With `COc1ccc(C(=O)COC(=O)CCCC(=O)Nc2cc(C(F)(F)F)ccc2Cl)cc1` as the compound, how does the Potency read?
Its Potency is inconclusive: 3.55 µM [inhibitor, partial curve, poor fit].

`CC(C)(C)OC(=O)N1CCC(c2c(C(=O)N3CCCCC3)cnn2-c2cccc(F)c2)CC1` was tested. Which Potency did it give?
The Potency was “inactive”.

How did the Potency turn out when `CCOC(=O)c1cnc2ccc(C)cc2c1Nc1ccc(N(CC)CC)cc1` was run?
The Potency was inconclusive: 0.199 µM [inhibitor, full curve, poor fit].

How did the Potency turn out when `Cc1ccc2c(CNCc3ccc(C)o3)c(C(=O)O)n(Cc3ccc(F)cc3)c2c1` was run?
The Potency was inconclusive: 3.98 µM [inhibitor, partial curve, poor fit].

`COCCCn1c(-c2ccc(S(=O)(=O)N3CCOCC3)cc2)csc1=Nc1ccccc1` was tested. Which Potency did it give?
Its Potency is “inactive”.

Which Potency does the source give for `O=C(Cc1ccccc1)Nc1sc2c(c1C(=O)Nc1ccc(Br)cc1)CCCC2` here?
Its Potency is inconclusive: 70.8 µM [inhibitor, partial curve, poor fit].
